# Data reported in PMC7164261.
# These are yes or no findings as the source states them, for the method shown. Some entries that bind do so weakly or less than the wild type. Sequences can lack the tags named with a protein.
# T1: LexA fusion of the cytoplasmic tail of human TMIGD1 (AA 241-262) (human) (UniProt Q6UXZ0)
# T1 sequence: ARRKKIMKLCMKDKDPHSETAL
# Target: T1, LexA fusion of the cytoplasmic tail of human TMIGD1 (AA 241-262) (human)
# Test: two-hybrid; screen: LexA-TMIGD1 cytoplasmic tail (AA 241-262) as bait in S. cerevisiae L40, day 9.5/10.5 mouse embryo cDNA library; selection on SD-THULL with 1 mM 3-aminotriazole, 30 °C
binder,measurement,value
"murine SYNJ2BP AA 1-105 (clone isolated from the yeast two-hybrid library) (domain or fragment, UniProt Q9D6K5 1-105) MNGRVDYLVTEEEINLTRGPSGLGFNIVGGTDQQYVSNDSGIYVSRIKEDGAAAQDGRLQEGDKILSVNGQDLKNLLHQDAVDLFRNAGCAVSLRVQHRLPVQNG",binding,binds
